# Results from the supplement of paper PMC12819154, “High-throughput peptide-centric local stability assay extends protein–ligand identification to membrane proteins, tissues and bacteria” (Nature Structural & Molecular Biology, 2025).
# This is one part of the list. Most entries show no effect beyond the scatter of the controls.
# Compound: CN[C@@H]1C[C@H]2O[C@@](C)([C@@H]1OC)n1c3ccccc3c3c4c(c5c6ccccc6n2c5c31)C(=O)NC4 [staurosporine]
# Assay: log2 fold change of tryptic peptide abundance, ligand vs vehicle (limited proteolysis) (log2 ratio); higher = more trypsin-susceptible (destabilized)
# Conditions: ligand concentration: 20 uM; sample: mouse liver crude lysate; replicate design: treated separately
row,Target,log2 fold change
1,"UniProt O88485 (peptide sequence: SDLKAELERK, peptide start residue: 5)",-0.593
2,"UniProt O88852 (peptide sequence: AFQHLEQK, peptide start residue: 191)",-0.692
3,"UniProt O70546 (peptide sequence: YAQYQASSFQESLREENEKR, peptide start residue: 1035)",0.689
4,"UniProt O70305 (peptide sequence: QNSPAGSKENVK, peptide start residue: 725)",-0.411
5,"UniProt O88738 (peptide sequence: LPGYAEVLLK, peptide start residue: 4191)",0.19
6,"UniProt O70378 (peptide sequence: FTMDCAAPTIHVYEQHENR, peptide start residue: 129)",-0.457
7,"UniProt O35969 (peptide sequence: LQDWALR, peptide start residue: 99)",-0.313
8,"UniProt O88544 (peptide sequence: EALPTWDK, peptide start residue: 365)",-0.29
9,"UniProt O35594 (peptide sequence: KMMRNEPIEGK, peptide start residue: 330)",0.0835
10,"UniProt O88520 (peptide sequence: LNSLTLAR, peptide start residue: 333)",-0.462
11,"UniProt O70250 (peptide sequence: HYGGLTGLNK, peptide start residue: 91)",-0.418
12,"UniProt O88342 (peptide sequence: IKDIAWTEDSKR, peptide start residue: 105)",-0.556
13,"UniProt O35680 (peptide sequence: RLGPTEGRPQLK, peptide start residue: 48)",-0.0868
14,"UniProt O35732 (peptide sequence: NPHLVSDYR, peptide start residue: 91)",0.35
15,"UniProt O35737 (peptide sequence: DLNYCFSGMSDHR, peptide start residue: 263)",-0.143
16,"UniProt O54692 (peptide sequence: NIFHLFHDVVPTYHK, peptide start residue: 514)",0.25
17,"UniProt O70333 (peptide sequence: VITPDTWK, peptide start residue: 13)",0.25
18,"UniProt O35660 (peptide sequence: FKLDLDFPNLPYLIDGSHK, peptide start residue: 51)",-0.676
19,"UniProt O88746 (peptide sequence: AADRLPNLASPSAEGPPRPSPGTAPR, peptide start residue: 453)",-0.0674
20,"UniProt O55187 (peptide sequence: SGEAAEGEAR, peptide start residue: 281)",0.481
21,"UniProt O88856 (peptide sequence: STDQVIKPVNLEALSK, peptide start residue: 284)",-0.193
22,"UniProt O88783 (peptide sequence: QEEENSGFQKR, peptide start residue: 995)",-0.592
23,"UniProt O70165 (peptide sequence: VVGLGAQDK, peptide start residue: 33)",-0.242

row,Target,log2 fold change
1,"UniProt O35980 (peptide sequence: IASEGCREELAPR, peptide start residue: 18)",-0.113
2,"UniProt O88545 (peptide sequence: FNVLYDR, peptide start residue: 306)",-0.325
3,"UniProt O54865 (peptide sequence: INVSEYTYR, peptide start residue: 562)",-0.339
4,"UniProt O54967 (peptide sequence: GLWLAKPSAR, peptide start residue: 560)",0.447
5,"UniProt O35698 (peptide sequence: PPSFSRTR, peptide start residue: 98)",0.127
6,"UniProt O55023 (peptide sequence: EALKNEMDVMIK, peptide start residue: 25)",-0.608
7,"UniProt O55234 (peptide sequence: LLANMVYQYK, peptide start residue: 141)",0.295
8,"UniProt O35627 (peptide sequence: LMGLLADLR, peptide start residue: 322)",0.131
9,"UniProt O88843 (peptide sequence: KTMLLLDILPSRGPK, peptide start residue: 53)",-0.224
10,"UniProt O55003 (peptide sequence: NSTLSEEDYIERR, peptide start residue: 84)",-0.219
11,"UniProt O54950 (peptide sequence: SHYFEGVLK, peptide start residue: 269)",0.266
12,"UniProt O54879 (peptide sequence: STNPGISIGDVAK, peptide start residue: 113)",0.135
13,"UniProt O35615 (peptide sequence: ASGPGEPGPQAPSR, peptide start residue: 481)",0.372
14,"UniProt O88879 (peptide sequence: LPLNIEEAKDR, peptide start residue: 216)",0.48
15,"UniProt O55029 (peptide sequence: LPEAAFLAR, peptide start residue: 751)",0.128
16,"UniProt O54825 (peptide sequence: FYNLVLLPR, peptide start residue: 248)",0.358
17,"UniProt O55236 (peptide sequence: RKYPLDPDTELMPPPPPK, peptide start residue: 574)",-0.475
18,"UniProt O35988 (peptide sequence: RAPSDVGDDMSNK, peptide start residue: 116)",-0.0957
19,"UniProt O70209 (peptide sequence: MLHDNRDDPAAPR, peptide start residue: 188)",0.264
20,"UniProt O88543 (peptide sequence: CIELDER, peptide start residue: 383)",-0.314
21,"UniProt O55131 (peptide sequence: THMQDLK, peptide start residue: 291)",-0.349
22,"UniProt O35613 (peptide sequence: DCSSLTGR, peptide start residue: 250)",0.475
23,"UniProt O70157 (peptide sequence: KLDEALSQYLGER, peptide start residue: 626)",-0.0719

# Reformatted: results already given.
row	Target	log2 fold change
8	UniProt O35627 (peptide sequence: LMGLLADLR, peptide start residue: 322)	0.131
9	UniProt O88843 (peptide sequence: KTMLLLDILPSRGPK, peptide start residue: 53)	-0.224
10	UniProt O55003 (peptide sequence: NSTLSEEDYIERR, peptide start residue: 84)	-0.219

# Some of the entries so far, bar-delimited:
row | Target | log2 fold change
15 | UniProt O55029 (peptide sequence: LPEAAFLAR, peptide start residue: 751) | 0.128
16 | UniProt O54825 (peptide sequence: FYNLVLLPR, peptide start residue: 248) | 0.358
17 | UniProt O55236 (peptide sequence: RKYPLDPDTELMPPPPPK, peptide start residue: 574) | -0.475

# (further entries)

row,Target,log2 fold change
1,"UniProt O70571 (peptide sequence: EVELFSR, peptide start residue: 23)",-0.199
2,"UniProt O88737 (peptide sequence: QAQFALQR, peptide start residue: 2443)",-0.0782
3,"UniProt O55013 (peptide sequence: FVQDTLKGDGVTEIR, peptide start residue: 150)",-0.218
4,"UniProt O54804 (peptide sequence: LFGIFPQGR, peptide start residue: 192)",-0.12
5,"UniProt O88811 (peptide sequence: HGELITVLDDSDANWWQGENHR, peptide start residue: 225)",-0.415
6,"UniProt O88508 (peptide sequence: HPPVESSDTPKDPAVTTK, peptide start residue: 54)",-0.41
7,"UniProt O88665 (peptide sequence: RLANSQCEFER, peptide start residue: 332)",0.668
8,"Q8BR92 (peptide sequence: LFEEDEREKEQFCVR, peptide start residue: 193) (UniProt O54931)",0.209
9,"UniProt O54941 (peptide sequence: IAAEIAQAEEQARK, peptide start residue: 285)",-0.496
10,"UniProt O88574 (peptide sequence: HLYICDYHK, peptide start residue: 108)",0.378
11,"UniProt O88286 (peptide sequence: EFLAGAARPGLLTLAK, peptide start residue: 973)",0.433
12,"UniProt O70252 (peptide sequence: KCPFYAAQPDK, peptide start residue: 263)",0.493
13,"UniProt O88597 (peptide sequence: QQLELDDELK, peptide start residue: 237)",0.297
14,"UniProt O88587 (peptide sequence: YDVDTLDMVFLDHWK, peptide start residue: 173)",0.771
15,"UniProt O35740 (peptide sequence: ADHMMAMNHGR, peptide start residue: 2)",-0.149
16,"UniProt O70194 (peptide sequence: DMPYQPFSK, peptide start residue: 27)",0.156
17,"UniProt O54724 (peptide sequence: LVPVERR, peptide start residue: 283)",-0.17
18,"UniProt O70492 (peptide sequence: GDDGIFDDNFIEERK, peptide start residue: 105)",0.289
19,"UniProt O55111 (peptide sequence: GQHELSEVDGR, peptide start residue: 713)",-0.252
20,"UniProt O35491 (peptide sequence: EHLAMMER, peptide start residue: 385)",-0.389
21,"UniProt O35738 (peptide sequence: AVQEVHPSPVSR, peptide start residue: 266)",0.151
